In paper PMC1810427:
Results are given in words; binding and its absence hold for the method and conditions named. Some binding calls cover weakened binding; strength is not graded here.

Protein sequences, listed by entry. Tags and fused reporters are not part of them. Residues count along the entry.
UniProt O15234, residues 137-283: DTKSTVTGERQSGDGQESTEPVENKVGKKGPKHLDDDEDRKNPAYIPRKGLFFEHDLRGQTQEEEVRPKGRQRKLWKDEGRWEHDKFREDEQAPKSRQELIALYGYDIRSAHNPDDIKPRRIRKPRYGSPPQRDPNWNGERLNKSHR
UniProt P38919: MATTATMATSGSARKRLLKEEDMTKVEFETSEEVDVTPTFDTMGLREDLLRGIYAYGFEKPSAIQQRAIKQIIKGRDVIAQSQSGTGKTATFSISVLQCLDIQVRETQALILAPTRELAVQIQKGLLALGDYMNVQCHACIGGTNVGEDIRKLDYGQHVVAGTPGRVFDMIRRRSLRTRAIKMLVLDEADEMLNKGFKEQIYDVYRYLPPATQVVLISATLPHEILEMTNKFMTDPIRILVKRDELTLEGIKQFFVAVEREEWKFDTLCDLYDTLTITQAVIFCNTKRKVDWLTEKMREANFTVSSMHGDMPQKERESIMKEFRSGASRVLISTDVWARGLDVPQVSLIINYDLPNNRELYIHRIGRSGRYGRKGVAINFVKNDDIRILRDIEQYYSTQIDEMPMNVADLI

Target: SELOR domain of MLN51 (residues 137-283) (UniProt O15234)
Assay: SPR; 5'-biotinylated 35-mer single-stranded RNA on a streptavidin chip; 160 nM protein samples injected without nucleotide; 40 mM Tris-HCl pH 7.8, 50 mM NaCl, 4 mM DTT, 5 mM MgCl2, 0.002% Tween 20, 30 µl/min; Biacore 2000; the protein-protein complex is read from the rise of protein bound to RNA; both purified

- binding: binds
Substance: eIF4AIII (from UniProt P38919 1-411) (enzyme)
